Data from article PMC10705702.
These are yes or no findings as the source states them, for the method shown. Binding seen in cells or lysates may run through a third protein. Some entries that bind do so weakly or less than the wild type.

Target: T1, Iroquois-Homeobox 4 (IRX4) (human (endogenous in LNCaP)) (UniProt P78413)
T1 sequence: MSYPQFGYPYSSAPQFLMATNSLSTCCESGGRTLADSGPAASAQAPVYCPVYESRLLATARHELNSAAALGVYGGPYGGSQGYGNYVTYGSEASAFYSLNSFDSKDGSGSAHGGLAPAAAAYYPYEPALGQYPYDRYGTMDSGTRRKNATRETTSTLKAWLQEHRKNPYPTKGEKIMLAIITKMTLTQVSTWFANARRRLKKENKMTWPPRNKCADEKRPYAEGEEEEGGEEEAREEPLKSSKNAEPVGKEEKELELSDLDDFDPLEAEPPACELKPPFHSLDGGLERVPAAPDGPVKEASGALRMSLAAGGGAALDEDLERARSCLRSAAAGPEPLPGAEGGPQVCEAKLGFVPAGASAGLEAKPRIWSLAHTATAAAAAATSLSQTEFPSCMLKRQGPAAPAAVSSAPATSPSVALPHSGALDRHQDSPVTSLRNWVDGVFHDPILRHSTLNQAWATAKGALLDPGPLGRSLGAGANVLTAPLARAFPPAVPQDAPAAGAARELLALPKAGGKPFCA
Assay: co-IP; independent IP with anti-IRX4 antibody from LNCaP nuclear enriched lysate, IgG control; Western blot with IRX4 and FOXA1 antibodies

B1: FOXA1, also known as hepatocyte nuclear factor 3α (HNF-3α) (protein, UniProt P55317 1-472)
chain: MLGTVKMEGHETSDWNSYYADTQEAYSSVPVSNMNSGLGSMNSMNTYMTMNTMTTSGNMTPASFNMSYANPGLGAGLSPGAVAGMPGGSAGAMNSMTAAGVTAMGTALSPSGMGAMGAQQAASMNGLGPYAAAMNPCMSPMAYAPSNLGRSRAGGGGDAKTFKRSYPHAKPPYSYISLITMAIQQAPSKMLTLSEIYQWIMDLFPYYRQNQQRWQNSIRHSLSFNDCFVKVARSPDKPGKGSYWTLHPDSGNMFENGCYLRRQKRFKCEKQPGAGGGGGSGSGGSGAKGGPESRKDPSGASNPSADSPLHRGVHGKTGQLEGAPAPGPAASPQTLDHSGATATGGASELKTPASSTAPPISSGPGALASVPASHPAHGLAPHESQLHLKGDPHYSFNHPFSINNLMSSSEQQHKLDFKAYEQALQYSPYGSTLPASLPLGSASVTTRSPIEPSALEPAYYQGVYSRPVLNTS
binding: binds
